At least one compound was matched to its structure with a doubt left.
System: GSK-3
Assay: Distalless (Dll) expression in Drosophila wing imaginal discs as assay of GSK-3 function
Type: cell-based
Conditions: 1 mM; Dll lacZ; vs DMSO

[Li] [lithium]
Dll expression in wing imaginal discs: activation of Dll expression

Reference: US9259409B2, “Compositions comprising a prostaglandin for treating neuropsychiatric conditions” (Inceptum Research & Therapeutics, Inc., priority 2011, dated 2016)
